PMC12441059
No constants are given. Whether binding was seen depends on the method and setting. Binding seen in cells or lysates may run through a third protein.

Biological target: EGFR (endogenous, CaOV3 cells) (human (endogenous in CaOV3)) (UniProt P00533)
Test: co-IP; whole cell lysates of CaOV3 cells, in the presence of both ligands (EGF + VEGF-A); anti-EGFR monoclonal antibodies and BsAb precipitated with Protein A and G beads; Western blot for EGFR and VEGFR2

binding: no binding
Substance: VEGFR2 (endogenous, CaOV3 cells) (from UniProt P35968 20-1356) (receptor)
